Laboratory results reported in the supplement of paper PMC8166895.
Structures can show the parent of a compound that is named as a salt. The list shows a part of the results. Most values lie at the level of the controls, where differences are scatter.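 Differential scanning fluorimetry gave melting temperatures in a one-replicate pilot screen of a library of approved drugs plus clinical or known-target compounds. Hits increasing melting point at least 2 °C were the strongest stabilizers, while negative shifts signify destabilization.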

system: SARS-CoV-2 main protease (Mpro, nsp5); experiment: thermal shift ΔTm of Mpro relative to plate average Tm; higher = stronger thermal stabilization of Mpro (binding); conditions: 10 µM; protein concentration 1 µM

SMILES | thermal shift ΔTm of Mpro
O=c1[nH]cnc2[nH]ncc12 [Allopurinol Sodium] | 0.059 °C
O=C1NC(=O)/C(=C/c2cccc(C(F)(F)F)c2)S1 | 0.174 °C
Cc1cc(O)c2c(c1)C(=O)c1cc(O)cc(O)c1C2=O [Emodin] | 0.304 °C
Clc1ccc(Nc2nnc(Cc3ccncc3)c3ccccc23)cc1 [Vatalanib (PTK787) 2HCl] | 0.242 °C
Cn1cc(-c2ccc3nnc(Sc4ccc5ncccc5c4)n3n2)cn1 | 0.173 °C
COC(=O)c1ccc2c(C(=Nc3ccc(N(C)C(=O)CN4CCN(C)CC4)cc3)c3ccccc3)c(O)[nH]c2c1 [Nintedanib (BIBF 1120)] | -0.262 °C
CN1CCN(c2ccc(OC(F)(F)F)c(Nc3ncc4c(n3)-c3c(c(C(N)=O)nn3CCO)CC4)c2)CC1 | -0.0527 °C
CN(C/C=C/C#CC(C)(C)C)Cc1cccc2ccccc12 [Terbinafine] | -0.132 °C
CN(C/C=C/C#CC(C)(C)C)Cc1cccc2ccccc12 [Terbinafine HCl] | 0.0336 °C
O=c1[nH]cnc2c1ncn2[C@H]1CC[C@@H](CO)O1 [Didanosine] | -0.138 °C
Cn1c(O)c(C2=c3ccccc3=NC2=O)c2ccccc21 [Methylisoindigotin] | 0.101 °C
Nc1ccc(S(=O)(=O)NCCc2ccccc2)cc1 | 0.158 °C
Fc1ccc([C@@H]2CCNC[C@H]2COc2ccc3c(c2)OCO3)cc1 [Paroxetine HCl] | -0.0125 °C
Nc1nc(O)c2ncn(CCC(CO)CO)c2n1 [Penciclovir] | -0.0277 °C
NC(CO)C(=O)NNCc1ccc(O)c(O)c1O (configuration not stated) [Benserazide HCl] | 0.713 °C
C[C@H]1COc2c(N3CCN(C)CC3)c(F)cc3c(=O)c(C(=O)O)cn1c23 [Levofloxacin Hemihydrate] | 0.207 °C
C[C@H]1COc2c(N3CCN(C)CC3)c(F)cc3c(=O)c(C(=O)O)cn1c23 [Levofloxacin] | 0.236 °C
CCCC(=O)OCOC(=O)C1=C(C)NC(C)=C(C(=O)OC)C1c1cccc(Cl)c1Cl (configuration not stated) [Clevidipine Butyrate] | -0.107 °C
CC1(C)S[C@@H]2[C@H](NC(=O)[C@H](N)c3ccccc3)C(=O)N2[C@H]1C(=O)OCOC(=O)[C@@H]1N2C(=O)C[C@H]2S(=O)(=O)C1(C)C [Sultamicillin Tosylate] | 0.127 °C

2 consecutive records already listed, for reference:
SMILES | thermal shift ΔTm of Mpro
C[C@H]1COc2c(N3CCN(C)CC3)c(F)cc3c(=O)c(C(=O)O)cn1c23 [Levofloxacin] | 0.236 °C
CCCC(=O)OCOC(=O)C1=C(C)NC(C)=C(C(=O)OC)C1c1cccc(Cl)c1Cl (configuration not stated) [Clevidipine Butyrate] | -0.107 °C

Remaining list, next part:

SMILES | thermal shift ΔTm of Mpro
COc1cc(NC(=O)CCN2CCC(OC(=O)Nc3ccccc3-c3ccccc3)CC2)c(Cl)cc1CNC[C@H](O)c1ccc(O)c2[nH]c(=O)ccc12 [Batefenterol] | 0.0951 °C
NCC[C@H](O)C(=O)N[C@@H]1C[C@H](N)[C@@H](O[C@H]2O[C@H](CN)[C@@H](O)[C@H](O)[C@H]2O)[C@H](O)[C@H]1O[C@H]1O[C@H](CO)[C@@H](O)[C@H](N)[C@H]1O [Amikacin Sulfate Salt] | -0.0317 °C
NCC[C@H](O)C(=O)N[C@@H]1C[C@H](N)[C@@H](O[C@H]2O[C@H](CN)[C@@H](O)[C@H](O)[C@H]2O)[C@H](O)[C@H]1O[C@H]1O[C@H](CO)[C@@H](O)[C@H](N)[C@H]1O [Amikacin] | 0.218 °C
CCN(CC)CCOC(=O)C(O)(c1ccccc1)c1ccccc1 [Benactyzine hydrochloride] | 0.251 °C
Cc1cc2c(F)c(Oc3ncnn4cc(OC[C@@H](C)O)c(C)c34)ccc2[nH]1 | -0.0145 °C
O=C(O)CSCC(=O)NC1CCSC1=O (configuration not stated) [Erdosteine] | 0.0796 °C
COc1cc(/C=C/C(=O)CC(=O)/C=C/c2ccc(O)c(OC)c2)ccc1O [Curcumin] | 0.237 °C
CC(=O)OCC[N+](C)(C)C [Acetylcholine Chloride] | 0.0763 °C
CC1(C)CCC2=C(O1)c1ccccc1C(=O)C2=O [Beta-Lapachone] | 0.0913 °C
C#CCCC(=O)O [4-Pentynoic acid] | 0.159 °C
OCCN1C[C@H](O)[C@@H](O)[C@H](O)[C@H]1CO [Miglitol] | 0.00599 °C
S=C(NCc1ccc2c(c1)OCO2)N1CCN(c2ncnc3c2oc2ccccc23)CC1 [Amuvatinib (MP-470)] | 0.234 °C
CC(=O)Oc1cc2c(s1)CCN(C(C(=O)C1CC1)c1ccccc1F)C2 (configuration not stated) [Prasugrel] | 0.18 °C
Cn1cnc([N+](=O)[O-])c1Sc1ncnc2[nH]cnc12 [Azathioprine] | -0.0325 °C
CC(C)C(=O)Nc1ccc([N+](=O)[O-])c(C(F)(F)F)c1 [Flutamide] | -0.00142 °C
CN(C)[C@@H]1C(=O)C(C(N)=O)=C(O)[C@@]2(O)C(=O)C3=C(O)c4c(O)ccc(Cl)c4[C@@H](O)[C@H]3C[C@@H]12 [Demeclocycline HCl] | -0.0735 °C
O=C(O)CCCC[C@@H]1SC[C@@H]2NC(=O)N[C@@H]21 [Biotin (Vitamin B7)] | 0.178 °C
CCOc1cc(C(C)(C)C)ccc1C1=N[C@@](C)(c2ccc(Cl)cc2)[C@@](C)(c2ccc(Cl)cc2)N1C(=O)N1CCN(CCCS(C)(=O)=O)CC1 | -0.289 °C
